Data published in PubChem BioAssay AID248 (DTP/NCI, 2004).
The list shows only some results of the screen, not a fair sample: it gathers tests that were run many times, whatever their T/C, doses with no T/C, and many T/C values between a quarter and a half above the control. Other doses and runs of a compound stand elsewhere. T/C is the treated group as % of the vehicle group. Some entries give survivors of the animals treated and no T/C: the source files T/C as zero there, which appears to mark a toxic dose or a test without result, not a measured value. Some survivor counts are full or nearly so, which does not show that the dose was tolerated: survival well below the control is almost never listed, so the zero probably covers shortened survival too. Counts of survivors are from the toxicity check (mostly the fifth day) where no day follows; animals may have died later. Schedule codes are those of the source, taken here to give the interval after Q, in days (D) or hours (H), and the number of doses after X. Where survival is the endpoint, the PubChem record calls one and a half times the control and up active, and a quarter to a half above the control has no call in these data; cut-offs in other NCI protocols can differ.

Test system: L1210 leukemia ip in BDF1 mice, survival T/C
Assay: NCI In Vivo Anticancer Drug Screen. Data for tumor model L1210 Leukemia (intraperitoneal) in B6D2F1 (BDF1) mice
Settings: T/C endpoint: mean survival time, higher T/C = longer survival
[1] = dose: 100.0 mg/kg/injection, schedule: Q04DX003 (ip), vehicle: saline
[2] = dose: 200.0 mg/kg/injection, schedule: Q04DX003 (ip), vehicle: saline
[3] = dose: 400.0 mg/kg/injection, schedule: Q04DX003 (ip), vehicle: saline

Oc1cccc[c]1[Hg][Cl]
survivor count (dose: 6.0 mg/kg/injection, schedule: Q04DX003 (ip), vehicle: saline): 1 of 6 | survivor count (dose: 12.0 mg/kg/injection, schedule: Q01DX009 (ip), vehicle: Klucel (hydroxypropylcellulose) (HPC)): 3 of 6 | survivor count (dose: 12.0 mg/kg/injection, schedule: Q04DX003 (ip), vehicle: saline): 0 of 6 | survivor count (dose: 25.0 mg/kg/injection, schedule: Q01DX009 (ip), vehicle: Klucel (hydroxypropylcellulose) (HPC)): 0 of 6 | survivor count (dose: 25.0 mg/kg/injection, schedule: Q04DX003 (ip), vehicle: saline): 0 of 6 | survivor count (dose: 50.0 mg/kg/injection, schedule: Q01DX009 (ip), vehicle: Klucel (hydroxypropylcellulose) (HPC)): 0 of 6 | survivor count (dose: 50.0 mg/kg/injection, schedule: Q04DX003 (ip), vehicle: saline): 0 of 6 | survivor count (dose: 100.0 mg/kg/injection, schedule: Q01DX009 (ip), vehicle: Klucel (hydroxypropylcellulose) (HPC)): 0 of 6 | survivor count [1]: 0 of 6 | survivor count (dose: 200.0 mg/kg/injection, schedule: Q01DX009 (ip), vehicle: Klucel (hydroxypropylcellulose) (HPC)): 0 of 6 | survivor count [2]: 0 of 6 | survivor count [3]: 0 of 6

Nc1ccc(CCc2[nH]c(N)nc(=S)c2-c2ccc(Cl)cc2)cc1
survivor count (dose: 100.0 mg/kg/injection, schedule: Q04DX003 (ip), vehicle: saline with Tween-80): 6 of 6

Cc1nc(C[N+](C)(C)C)c2cnccn12
survivor count [2]: 5 of 6 | survivor count [3]: 0 of 6

c1ccc(CCN2CCC(CCc3c[nH]c4ccccc34)CC2)cc1
survivor count (dose: 200.0 mg/kg/injection, schedule: Q01DX001 (ip), vehicle: saline): 0 of 4 | survivor count (dose: 400.0 mg/kg/injection, schedule: Q01DX001 (ip), vehicle: saline): 0 of 4 | survivor count (dose: 600.0 mg/kg/injection, schedule: Q01DX001 (ip), vehicle: saline): 1 of 4 | survivor count (dose: 800.0 mg/kg/injection, schedule: Q01DX001 (ip), vehicle: saline): 0 of 4

C=C(Cl)CO
survivor count [1]: 0 of 3 | survivor count [2]: 0 of 3 | survivor count [3]: 0 of 3

c1cc[c]([Pb]([S]c2nc3ccccc3[nH]2)([c]2ccccc2)[c]2ccccc2)cc1
survivor count (dose: 25.0 mg/kg/injection, schedule: Q04DX002 (ip), vehicle: gum acacia): 3 of 3 | survivor count (dose: 50.0 mg/kg/injection, schedule: Q04DX002 (ip), vehicle: gum acacia): 1 of 3 | survivor count (dose: 100.0 mg/kg/injection, schedule: Q04DX002 (ip), vehicle: gum acacia): 1 of 3 | survivor count (dose: 200.0 mg/kg/injection, schedule: Q04DX002 (ip), vehicle: gum acacia): 1 of 3 | survivor count (dose: 400.0 mg/kg/injection, schedule: Q04DX002 (ip), vehicle: gum acacia): 0 of 3

COC1CCC(NC(=O)N(CCCl)N=O)CC1 (stereo not drawn)
T/C (dose: 12.0 mg/kg/injection, schedule: Q01DX001 (ip), vehicle: saline with Tween-80, evaluated on day 30): 147 % of control | T/C (dose: 12.0 mg/kg/injection, schedule: Q01DX001 (ip), vehicle: saline with Tween-80, evaluated on day 45): 131 % of control | survivor count (dose: 80.0 mg/kg/injection, schedule: Q01DX001 (ip), vehicle: saline with Tween-80): 10 of 10 | T/C (dose: 90.0 mg/kg/injection, schedule: Q01DX001 (ip), vehicle: saline with Tween-80): 145 % of control | survivor count (dose: 120.0 mg/kg/injection, schedule: Q01DX001 (ip), vehicle: saline with Tween-80): 9 of 10 | survivor count (dose: 135.0 mg/kg/injection, schedule: Q01DX001 (ip), vehicle: saline with Tween-80): 8 of 10 | survivor count (dose: 178.0 mg/kg/injection, schedule: Q01DX001 (ip), vehicle: saline with Tween-80): 6 of 10 | survivor count (dose: 200.0 mg/kg/injection, schedule: Q01DX001 (ip), vehicle: saline with Tween-80): 8 of 10 | survivor count (dose: 266.0 mg/kg/injection, schedule: Q01DX001 (ip), vehicle: saline with Tween-80): 7 of 10 | survivor count (dose: 300.0 mg/kg/injection, schedule: Q01DX001 (ip), vehicle: saline with Tween-80): 3 of 10 | survivor count (dose: 400.0 mg/kg/injection, schedule: Q01DX001 (ip), vehicle: saline with Tween-80): 0 of 10
